Reference: PubChem BioAssay AID652243 (Drosophila RNAi Screening Center, 2013)
Screen: 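Knock-downs that decrease or increase androgen receptor reporter signal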 (primary screen). Cells: Drosophila S2R+ cells. Knock-down reagent: long dsRNA against Drosophila genes. Time to read-out: 72 h (48 h, then 24 h hormone). Treatment: synthetic androgen R1881 at 10 nM for 24 h. Read-out: 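Per-well raw luminescence of the androgen-driven firefly reporter and of the Renilla control, two replicates each, without normalisation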. Direction: firefly reporter light: higher = more light from androgen-responsive reporter; Renilla control light: higher = more constitutive control signal (cell number, transfection). Call rule: 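Across duplicate plates, a knock-down whose log firefly/Renilla ratio shifted a set fold down or up from the GFP/LacZ control mean was a hit; the downward cut appears as both 1.5 and 3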. Meaning of the calls: active = hit: reporter lowered or raised; inactive = no hit.
The deposit covers about 24,000 reagents; this is a random part of those with a known target gene and a result. Over the whole deposit, 246 (1%) were called active. 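Plates not normalised; calls are printed but the firefly/Renilla ratio behind them is not deposited; fold cut for lowering reported inconsistently.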 Raw values are not corrected between plates. Unmarked entries are inactive. Names joined by + are all predicted targets of the reagent. Reagent sequences are not shown. Not given: the amount of reagent.

target gene	dsRNA	firefly reporter light, replicate 1	firefly reporter light, replicate 2	Renilla control light, replicate 1	Renilla control light, replicate 2
Gdap2	DRSC06789	5.16e5	4.46e5	2.39e6	2.06e6
Gdap2	DRSC06790	4.72e5	4.64e5	2.13e6	1.88e6
CG18304	DRSC02664	1.52e5	1.97e5	2.16e6	1.98e6
CG18304	DRSC28389	6.19e5	7.52e5	1.97e6	2.36e6
CG18304	DRSC39011	1.18e6	1.17e6	1.56e6	1.77e6
bi (bifid)	DRSC18742	3.27e5	3.18e5	3.05e6	2.90e6
bi (bifid)	DRSC28848	4.37e5	5.09e5	1.09e6	1.26e6
bi (bifid)	DRSC38941	7.69e5	8.28e5	1.79e6	1.75e6
jeb (jelly belly)	DRSC06305	1.81e5	1.60e5	9.82e5	1.28e6
jeb (jelly belly)	DRSC06307	3.30e5	2.36e5	1.59e6	1.65e6
jeb (jelly belly)	DRSC26882	3.09e5	2.35e5	8.09e5	5.85e5
CG9459	DRSC16496	1.28e5	1.37e5	2.10e6	2.23e6
alpha-Man-Ib (alpha-Mannosidase class I b)	DRSC14418	59928	78050	4.81e5	3.71e5
alpha-Man-Ib (alpha-Mannosidase class I b)	DRSC26131	2.82e5	2.74e5	7.85e5	7.07e5
disp (dispatched)	DRSC12376	25857	23916	6.00e5	5.80e5
CG9014	DRSC01979	3.10e5	2.41e5	2.34e6	2.30e6
Mgat3	DRSC01305	1.72e5	2.58e5	3.33e5	4.07e5
Mgat3	DRSC29398	4.60e5	5.17e5	1.15e6	1.15e6
Pld (Phospholipase D)	DRSC04854	1.26e6	8.24e5	2.20e6	1.30e6
Pld (Phospholipase D)	DRSC24641	5.26e5	5.28e5	4.50e5	4.52e5
Ccp84Af	DRSC12591	70209	84110	9.81e5	1.58e6
Ccp84Af	DRSC25262	7.61e5	7.70e5	7.57e5	6.82e5
Ir21a + asRNA:CR43609	DRSC00528	62097	62620	3.18e5	4.83e5
CG13670	DRSC10029	1.82e5	2.04e5	2.53e6	2.27e6
CG13670	DRSC26092	3.60e5	4.05e5	8.04e5	6.81e5
CR41243 (pseudo)	DRSC37741	6.94e5	6.15e5	1.85e6	1.66e6

Limited to “Renilla control light, replicate 1” (8 entries from above):
jeb (jelly belly) [DRSC06307]	1.59e6
jeb (jelly belly) [DRSC26882]	8.09e5
CG9459 [DRSC16496]	2.10e6
alpha-Man-Ib (alpha-Mannosidase class I b) [DRSC14418]	4.81e5
alpha-Man-Ib (alpha-Mannosidase class I b) [DRSC26131]	7.85e5
disp (dispatched) [DRSC12376]	6.00e5
CG9014 [DRSC01979]	2.34e6
Mgat3 [DRSC01305]	3.33e5

Additional records follow.
target gene	dsRNA	firefly reporter light, replicate 1	firefly reporter light, replicate 2	Renilla control light, replicate 1	Renilla control light, replicate 2
CG8260	DRSC20098	6.64e5	4.84e5	6.42e6	4.26e6
tapas	DRSC05950	1.11e6	1.17e6	1.30e6	8.64e5
tea (telomere ends associated)	DRSC06110	1.01e6	1.09e6	1.76e6	1.88e6
tea (telomere ends associated)	DRSC06236	2.80e5	2.98e5	1.64e6	1.92e6
fz4 (frizzled 4)	DRSC18780	3.13e5	3.90e5	2.59e6	2.71e6
bbg (big bang)	DRSC11077	2.48e5	2.39e5	3.15e6	3.03e6
bbg (big bang)	DRSC11079	99084	84382	1.50e6	1.21e6
bbg (big bang)	DRSC25910	3.79e5	4.45e5	8.76e5	1.03e6
bbg (big bang)	DRSC27292	4.34e5	3.75e5	3.69e5	3.98e5
CG12376	DRSC06144	8.46e5	7.56e5	2.26e6	1.94e6
CG12376	DRSC29464	3.46e5	4.20e5	1.13e6	1.13e6
Cyp6g1 (Cytochrome P450 6g1)	DRSC07386	8.78e5	6.82e5	1.61e6	1.29e6
CG18747	DRSC15384	1.05e5	1.09e5	2.52e6	1.95e6
CG18747	DRSC26205	2.80e5	2.78e5	4.78e5	4.74e5
CG6357	DRSC06979	1.18e6	5.21e5	2.77e6	1.38e6
Cpr65Az (Cuticular protein 65Az)	DRSC09882	1.60e5	1.93e5	2.41e6	3.65e6
Cpr65Az (Cuticular protein 65Az)	DRSC22057	8.79e5	9.56e5	2.04e6	1.56e6
Cpr65Az (Cuticular protein 65Az)	DRSC23964	8.12e5	9.44e5	9.67e5	1.11e6
Decay (Death executioner caspase related to Apopain/Yama)	DRSC16930	1.72e5	1.63e5	2.19e6	2.35e6
Tti1 (Telo2 interacting protein 1)	DRSC15163	1.05e5	81445	2.20e6	2.05e6
Tti1 (Telo2 interacting protein 1)	DRSC27694	2.49e5	2.73e5	3.95e5	8.50e5
CG15395	DRSC00409	80478	89502	5.75e5	6.94e5
CG9213	DRSC20170	1.23e5	1.18e5	5.96e5	6.53e5
CG9213	DRSC24500	8.41e5	7.98e5	9.69e5	1.08e6
trv (trivet)	DRSC13846	3.38e5	4.57e5	5.76e5	9.11e5
trv (trivet)	DRSC14560	1.96e5	1.54e5	3.36e6	2.92e6
trv (trivet)	DRSC14561	5.21e5	5.87e5	3.59e6	4.09e6
trv (trivet)	DRSC25527	9.82e5	1.21e6	1.06e6	9.18e5
trv (trivet)	DRSC25789	3.94e5	2.91e5	8.00e5	6.21e5
CG18870	DRSC04313	2.64e5	2.06e5	1.40e6	1.07e6
CheB38c (Chemosensory protein B 38c)	DRSC02389	2.26e5	2.36e5	1.67e6	2.29e6
Scsalpha1 (Succinyl-coenzyme A synthetase alpha subunit 1)	DRSC08698	1.03e6	7.02e5	1.62e6	1.50e6
Scsalpha1 (Succinyl-coenzyme A synthetase alpha subunit 1)	DRSC26856	3.42e5	3.99e5	4.16e5	6.20e5
ttv (tout-velu)	DRSC07709	4.96e5	8.88e5	2.63e6	2.21e6
ttv (tout-velu)	DRSC26088	3.68e5	3.88e5	6.84e5	6.48e5
CLS (Cardiolipin synthase)	DRSC15642	1.91e5	2.14e5	2.44e6	2.38e6
CLS (Cardiolipin synthase)	DRSC28289	3.34e5	4.85e5	8.91e5	1.07e6
CG9581	DRSC20695	5.44e5	4.20e5	3.23e6	3.15e6
CG9581	DRSC22247	9.03e5	8.92e5	2.27e6	1.74e6
CG12998	DRSC19518	4.73e5	4.00e5	2.63e6	2.00e6
Nepl3 (Neprilysin-like 3)	DRSC02681	9.48e5	1.65e6	1.28e6	1.93e6
CG15515	DRSC15054	1.79e5	2.21e5	1.93e6	2.50e6
Ance-5	DRSC04055	7.64e5	1.41e6	8.81e5	1.65e6
Ance-5	DRSC27189	3.17e5	3.19e5	5.32e5	5.41e5
ohgt (ohgata)	DRSC15521	1.17e5	1.33e5	2.37e6	2.68e6
ohgt (ohgata)	DRSC30024	3.94e5	3.68e5	9.70e5	1.06e6
CG13577	DRSC04213	2.86e5	3.85e5	1.32e6	1.30e6
Phf5a (PHD finger protein 5a)	DRSC03261	2.03e5	2.68e5	2.02e6	2.17e6
